Tested on: cabbage leaf discs
Assay: Rain-fastness study on cabbage leaf discs

COc1cc(C=O)ccc1O [0.1% Vanillin Technical in water, 4-Hydroxy-3-methoxybenzaldehyde]
% vanillin retained on leaf after 1 h (0.1% vanillin, washed with 10 mL water 1 h after application): 25.7% | % vanillin retained on leaf after 2 h (0.1% vanillin, washed with 10 mL water 2 h after application): 47.3% | % vanillin retained on leaf after 4 h (0.1% vanillin, washed with 10 mL water 4 h after application): 37.0% | % vanillin retained on leaf after 6 h (0.1% vanillin, washed with 10 mL water 6 h after application): 47.6% | % vanillin retained on leaf after 24 h (0.1% vanillin, washed with 10 mL water 24 h after application): 39.4% | Active ingredient washed off by simulated rain (deposit allowed to dry for 24 hours): approximately 60%

— patent US20160157479A1, “ANTIFUNGAL COMPOSITION AND METHOD” (OMEX INTERNATIONAL LIMITED, priority 2013, published 2016)
